Test results: patent publication US20030028924A1
No constants are given. Whether binding was seen depends on the method and setting. Some binding calls cover weakened binding; strength is not graded here.

By UniProt entry, the sequences of proteins in these tests, tags left out. Where a name states a change or a piece, a line headed by the entry shows the natural chain unless it says otherwise.
UniProt P04386: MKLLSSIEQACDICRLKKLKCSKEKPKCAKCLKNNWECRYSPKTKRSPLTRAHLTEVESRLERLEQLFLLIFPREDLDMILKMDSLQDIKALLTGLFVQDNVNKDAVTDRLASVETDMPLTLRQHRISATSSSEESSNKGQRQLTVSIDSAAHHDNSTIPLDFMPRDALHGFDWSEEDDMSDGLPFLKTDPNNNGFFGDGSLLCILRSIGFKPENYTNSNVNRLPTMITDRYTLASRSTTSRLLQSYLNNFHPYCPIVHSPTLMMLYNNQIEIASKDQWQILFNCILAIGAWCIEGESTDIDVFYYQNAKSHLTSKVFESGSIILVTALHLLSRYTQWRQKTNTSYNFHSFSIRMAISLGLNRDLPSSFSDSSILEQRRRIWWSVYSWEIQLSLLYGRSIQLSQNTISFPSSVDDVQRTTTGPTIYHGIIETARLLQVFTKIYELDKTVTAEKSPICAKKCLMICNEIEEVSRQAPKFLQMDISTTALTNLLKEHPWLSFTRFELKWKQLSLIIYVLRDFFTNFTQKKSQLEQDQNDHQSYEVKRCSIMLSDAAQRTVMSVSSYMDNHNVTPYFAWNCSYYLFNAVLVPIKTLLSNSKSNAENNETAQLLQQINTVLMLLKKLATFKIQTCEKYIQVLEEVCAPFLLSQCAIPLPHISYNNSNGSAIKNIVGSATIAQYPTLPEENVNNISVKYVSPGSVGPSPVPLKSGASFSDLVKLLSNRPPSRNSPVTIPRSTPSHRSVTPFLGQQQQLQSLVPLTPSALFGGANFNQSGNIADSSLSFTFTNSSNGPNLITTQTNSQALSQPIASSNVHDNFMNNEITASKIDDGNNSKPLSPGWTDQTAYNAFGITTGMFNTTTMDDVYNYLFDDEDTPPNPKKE
UniProt P14712: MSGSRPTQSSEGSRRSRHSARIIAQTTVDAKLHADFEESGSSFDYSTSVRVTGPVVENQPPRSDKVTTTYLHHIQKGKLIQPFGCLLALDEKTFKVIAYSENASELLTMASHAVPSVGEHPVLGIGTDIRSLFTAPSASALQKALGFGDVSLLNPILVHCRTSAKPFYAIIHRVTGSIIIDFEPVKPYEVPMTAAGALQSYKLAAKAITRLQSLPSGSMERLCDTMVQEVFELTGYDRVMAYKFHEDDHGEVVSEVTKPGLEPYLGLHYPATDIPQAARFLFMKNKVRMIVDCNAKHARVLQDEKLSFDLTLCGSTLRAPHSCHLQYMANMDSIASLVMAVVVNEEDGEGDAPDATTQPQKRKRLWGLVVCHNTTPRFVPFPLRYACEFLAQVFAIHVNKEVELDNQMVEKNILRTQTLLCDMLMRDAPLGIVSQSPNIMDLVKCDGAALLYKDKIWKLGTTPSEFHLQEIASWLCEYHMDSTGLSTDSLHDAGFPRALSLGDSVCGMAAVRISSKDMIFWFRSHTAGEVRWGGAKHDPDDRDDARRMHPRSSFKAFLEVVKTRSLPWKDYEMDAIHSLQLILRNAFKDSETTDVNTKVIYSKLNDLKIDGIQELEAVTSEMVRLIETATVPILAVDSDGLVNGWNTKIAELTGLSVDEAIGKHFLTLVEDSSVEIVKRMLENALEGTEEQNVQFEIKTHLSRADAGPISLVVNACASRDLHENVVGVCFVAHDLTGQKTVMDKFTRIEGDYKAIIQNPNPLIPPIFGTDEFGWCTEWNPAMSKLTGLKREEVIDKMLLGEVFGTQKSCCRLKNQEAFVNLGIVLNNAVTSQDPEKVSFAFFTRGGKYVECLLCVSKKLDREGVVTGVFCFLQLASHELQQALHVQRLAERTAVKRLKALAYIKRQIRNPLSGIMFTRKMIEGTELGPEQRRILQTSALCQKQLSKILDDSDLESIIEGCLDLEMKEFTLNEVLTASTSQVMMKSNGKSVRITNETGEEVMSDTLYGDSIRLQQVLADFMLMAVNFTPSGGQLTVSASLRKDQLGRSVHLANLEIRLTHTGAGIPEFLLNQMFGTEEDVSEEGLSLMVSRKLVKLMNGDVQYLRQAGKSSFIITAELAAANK

Assays:
[1] = target: T1, C-terminal domain (residues 667-1122) of Arabidopsis phytochrome A fused to the GAL4 DNA binding domain (bait, pGB-phyA in pGBT9) (Arabidopsis) (UniProt P04386+P14712); experiment: yeast two-hybrid screen
[2] = target: T1, C-terminal domain (residues 667-1122) of Arabidopsis phytochrome A fused to the GAL4 DNA binding domain (bait, pGB-phyA in pGBT9) (Arabidopsis); experiment: yeast two-hybrid screen, phyA C-terminal domain as bait, pea cDNA library as prey
[3] = target: T1, C-terminal domain (residues 667-1122) of Arabidopsis phytochrome A fused to the GAL4 DNA binding domain (bait, pGB-phyA in pGBT9) (Arabidopsis); experiment: yeast two-hybrid screen, selection on SD lacking leucine/tryptophane/histidine with 20 mM aminotriazole

Measured: binding

B1: PP2AC-JD, catalytic subunit of a pea protein phosphatase 2A, as the prey clone from the pea cDNA library in pAD-GAL4-2.1 (yeast two-hybrid) (enzyme, not shown: large carriers)
chain: MDLDQWISKVKDGQHLLEDELQLLCEYVKEILIEESNVQPVNSPVTVCGDIHGQFHDLMKLFQTGGHVPETNYIFMGDFVDRGYNSLDVFTILLLLKARYPANITLLRGNHESRQLTQVYGFYDECQRKYGNANATRYCTDVFDYLTLSAIIDGTVLCVHGGLSPDIRTIDQIRVIERNCEIPHEGPFCDLMWSDPEDIETWAVSPRGAGWLFGSRVTSEFNHINNLDLVCRAHQLVQEGLKYMFQDKGLVTVWSAPNYCYRCGNVASILSFNENMEREVKFFTETEENNQMRGPRTGVPYFL
binds: all assays above
